Assay results from patent US6670493B2, “Methods and compositions for treating diseases due to androgen deficiency with glucocorticoid receptor antagonist compounds and new compounds” (Jenapharm GmbH & Co. KG, priority 2001, dated 2003).
At least one structure is not confirmed: it was looked up by name or label, or the drawing left a doubt.

Columns and labels:
primary rat Leydig cells = test: hCG-stimulated testosterone production in primary rat Leydig cells treated with dexamethasone with or without glucocorticoid receptor antagonist (Elisa); assay type: cell-based; details: dexamethasone 10^-7 M
Protocol: Testicular cells were prepared from the testicles of sexually mature, 12-week old, male Wistar rats by means of a collagenase treatment. Leydig cells were obtained from this preparation by a continuous Percoll gradient centrifugation.
Freshly prepared Leydig cells were sown in microtiter plates in 100 μL of DMEM/F12 with phenol red (20,000) cells/well) with addition of 0.1% BSA, penicillin (100 U/ml) and streptomycin (100 μg/ml). After one hour, the medium was changed with addition of substance. For 18 hours, the Leydig cells were incubated with dexamethasone alone or together with glucocorticoid receptor antagonists (250 μL of DMEM/well with addition of penicillin (100 U/ml) and streptomycin (100 μg/ml)). […] Ethanol was used as solvent for dexamethasone and the glucocorticoid receptor antagonists; the final concentration of the ethanol was not more than 0.2%.
Aliquots of the supernatant were frozen at −70° C. Testosterone was measured with a commercial Elisa (IBL, Hamburg). The standard curve of testosterone Elisa was then adapted to the cell culture conditions.

[1] = system: male rats of the CD breeding line; test: Male sexual behavior of rats after chronic dexamethasone treatment with or without RU 38486; assay type: in vivo, rat; details: chronic treatment with dexamethasone alone
Protocol: (§1) Sexually mature, 3-month old male rats of the CD breeding line (Charles River GmbH, Sulzfeld, Germany) were kept in groups of 4 animals under controlled illumination (light:darkness 12:12 hours) with free access to food and drinking water. After a 1-week adaptation, the animals were tested by exposure to ovarectomized, estrogen-treated females for the presence of male sexual behavior (G. Dörner, Hormones and brain differentiation, Elsevier, Amsterdam, 1976, pp. 126-132). […] The animals of the reference group received intraperitoneal injections of dexamethasone (Fortecortin: Merck, Darmstadt, Germany) daily according to the following schedule: 0.5 mg/kg on days 1 to 3, 1 mg/kg on days 4 to 6 and 1.5 mg/kg on days 7 to 9. The control animals were injected with placebo (0.9% sterile NaCl solution. In addition to the dexamethasone treatment, the experimental group received subcutaneous injections of the glucocorticoid receptor antagonist RU 38486 (Sigma, Deisenhofen, Germany) in sesame oil solution in a dose of 10 mg/kg daily according to the schedule given above.
(§2) Male sexual behavior was evaluated on the ninth day by the method given above. After the behavior test, blood samples were taken from the retroorbital plexus for determining the serum testosterone level. The testosterone was determined with a commercial test formulation (IBL, Hamburg, Germany).

[2] = system: male rats of the CD breeding line; test: Serum testosterone level of rats after chronic dexamethasone treatment with or without RU 38486; assay type: in vivo, rat; details: daily injections of dexamethasone alone
Protocol: as §1, §2

C[C@@H]1C[C@H]2[C@@H]3CCC4=CC(=O)C=C[C@]4(C)[C@@]3(F)[C@@H](O)C[C@]2(C)[C@@]1(O)C(=O)CO [DEX, dexamethasone]
Effect on hCG-induced testosterone production in vitro (in words) (primary rat Leydig cells): significant decrease in the hCG-induced testosterone production | Effect on male sexual activity in comparison to the placebo group (in words) [1]: significant inhibition of male sexual activity | Effect on serum testosterone level in comparison to placebo (in words) [2]: significant reduction in the serum testosterone level
